A short description of this data set: general procedure: Boc solid-phase peptide synthesis; benzhydrylamine polystyrene resin. To be noted: whole synthesis, scale 0.50 mmol.

Square brackets hold non-standard residues; d marks the D form. Phe(4-Cl) = N[C@@H](Cc1ccc(Cl)cc1)C(=O)O

For the substance “Ac-CKN[Phe(4-Cl)]F[dW]KTFTSC-NH2 (cysteine pairing not given here)”, the isolated mass stood at 25 mg.

For the origin of these results see patent US4485101 (dated 1984).
